Results reported in publication PMC6209770 (Frontiers in Pharmacology, 2018).

Settings: mouse, in vivo, ip, 5 mg/kg

SMILES: COc1ccccc1N1CCN(CCCOc2cc(C)ccc2C)CC1.Cl [HBK-17, 1-[(2,5-dimethylphenoxy)propyl]-4-(2-methoxyphenyl)piperazine hydrochloride]
- AUC0→∞ in brain: 23860 ng·min/g
